Test results taken from article PMC11501031.
Results are given in words; binding and its absence hold for the method and conditions named. Some results given as binding are weak or reduced against the parent protein; the word gives no strength. Tags and fused reporters may be left off the sequences shown.

Target: T1, Nanos, full length, fused to a DNA-binding domain (two-hybrid bait) (Drosophila) (UniProt P25724)
T1 sequence: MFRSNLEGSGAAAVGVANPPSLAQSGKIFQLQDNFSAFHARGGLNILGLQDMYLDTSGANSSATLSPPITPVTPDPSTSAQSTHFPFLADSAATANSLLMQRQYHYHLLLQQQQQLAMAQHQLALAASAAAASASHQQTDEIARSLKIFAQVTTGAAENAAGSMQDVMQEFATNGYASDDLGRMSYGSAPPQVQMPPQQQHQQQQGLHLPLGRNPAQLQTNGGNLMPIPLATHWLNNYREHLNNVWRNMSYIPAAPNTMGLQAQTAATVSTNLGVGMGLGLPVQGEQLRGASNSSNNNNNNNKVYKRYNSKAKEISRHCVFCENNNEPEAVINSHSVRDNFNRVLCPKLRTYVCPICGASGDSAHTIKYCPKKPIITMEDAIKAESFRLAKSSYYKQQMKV
Assay: two-hybrid; yeast PJ69-4A; DBD fusion as bait, AD fusion as prey; lacZ reporter, beta-galactosidase measured with Beta-Glo in arbitrary light units; three transformants each; control is the empty AD vector

B1: Cup fused to a transcriptional activation domain (two-hybrid prey) (protein, UniProt Q9VMA3 1-1117)
chain: MQMAEAEQENGAGALKIATNAGATDRPAHQQLPLPVEDQQDEVLTPAEKGKFEYPPPPPPPTPVQAPLATKATALNASQEHDDDEANSEKWEDPCAPPPPPPLPTSAFLATGLGYLKLPAFKLKDALEKAITKLEANKRTLKASPESSRSIKNKNVVALEMLPRRSNPETIGDGSMLASTSTAVMLQTKKPAVIVEMERRCKIINLLAKQNQILESISGEAIPMHGPSKHLHEDEGLTLQVLSARASTPYTQPSSMLSCTAVSCDLEHDSPRKQVASKEAVPEQQSSQVQQKRPPSTGIHKPGSLRAPKAVRPTTAPVVSSKPVKSYTRSRLMDIRNGMFNALMHRSKESFVMPRIATCDDIELEGRLRRMNIWRTSDGTRFRTRSTTANLNMNNNNNNECMPAFFKNKNKPNLISDESIIQSQPPQPQTEFQDPAIVNQRRIGSGRLNHSKWGYNDEDYHSYHNGKSQHMEEVNSKNSKNMTVLQFFDNGEISSQPQRRPNTPVMGMSINRSENDTLHSNESSEDLSRANENYVKRVMSGFLVVSKPKSRDVEDRHHRRYRNQNEEPEWFSCGPTSRLDTIELCGFDEDEEKMLKEGNKNHGLGETERETSKQKMDHKYKWTHAEPMGRSKYMPKHDTNNNHNVENMNNVMATEHQQQKEEKRPGSGRSFQFDKFNQSQQNYESSSYVNHQQPPQTQPQQMQQQSNTNTNNSKFMSFFANEGNSSSSSLNEFFKQAINQGHGNNPEQPKSLGHIGQMPSVDQLEAKWRRNSLNNVGETANKQTDNFQKLIGSLSSAKPQSQAVGYDAISNFIMQQQQYQQQQQKQHLIIQQQQQHTAFLASLQLKAILGRADTQLLLLRLTKGEISKHGLLVQLANPRLTDMDREAITAVLQFTNTQQQQQQHKQQLDMLSSTVIASQLQNLHNLAIVQQTLAARQQPQHNPQTQAPHQLSQEDLQAHANVIMRNAVMKRKIEEQTSKLINGGAKHQAQQQYLNRGQQRQARPDANSNALLHALISGGGNNHASGYPMNGQPQKHHSNLRFGDNQNFQSFESNQPHFATQYKQQYQQSQQQHPHQQPQQLNSLHQNNAGAVNSFNKAQMQAQSAISMLPNSGDEFH
Q: Which binding does the source give for B1 here?
A: binds
